Assay results reported in PMC9977016.
No constants are given. Whether binding was seen depends on the method and setting. In cells and extracts the contact can be indirect. Some binding calls cover weakened binding; strength is not graded here.

By UniProt entry, the sequences of proteins in these tests, tags left out. Residues count along the entry.
UniProt P19525: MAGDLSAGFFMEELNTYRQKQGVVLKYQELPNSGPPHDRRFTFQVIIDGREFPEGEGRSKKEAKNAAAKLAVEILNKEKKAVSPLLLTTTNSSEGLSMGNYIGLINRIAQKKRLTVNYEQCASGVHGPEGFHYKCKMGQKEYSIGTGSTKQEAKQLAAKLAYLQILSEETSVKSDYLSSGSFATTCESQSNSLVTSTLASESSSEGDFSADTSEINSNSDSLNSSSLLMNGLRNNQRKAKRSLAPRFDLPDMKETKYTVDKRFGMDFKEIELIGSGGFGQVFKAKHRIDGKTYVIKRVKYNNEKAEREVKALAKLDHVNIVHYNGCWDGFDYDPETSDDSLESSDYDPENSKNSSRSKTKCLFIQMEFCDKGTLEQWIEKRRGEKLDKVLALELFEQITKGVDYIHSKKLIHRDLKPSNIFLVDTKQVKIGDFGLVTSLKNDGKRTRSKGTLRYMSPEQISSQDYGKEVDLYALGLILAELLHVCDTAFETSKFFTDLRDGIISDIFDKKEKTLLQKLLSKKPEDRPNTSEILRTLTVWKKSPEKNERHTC
UniProt Q99IB8, residues 1977-2442: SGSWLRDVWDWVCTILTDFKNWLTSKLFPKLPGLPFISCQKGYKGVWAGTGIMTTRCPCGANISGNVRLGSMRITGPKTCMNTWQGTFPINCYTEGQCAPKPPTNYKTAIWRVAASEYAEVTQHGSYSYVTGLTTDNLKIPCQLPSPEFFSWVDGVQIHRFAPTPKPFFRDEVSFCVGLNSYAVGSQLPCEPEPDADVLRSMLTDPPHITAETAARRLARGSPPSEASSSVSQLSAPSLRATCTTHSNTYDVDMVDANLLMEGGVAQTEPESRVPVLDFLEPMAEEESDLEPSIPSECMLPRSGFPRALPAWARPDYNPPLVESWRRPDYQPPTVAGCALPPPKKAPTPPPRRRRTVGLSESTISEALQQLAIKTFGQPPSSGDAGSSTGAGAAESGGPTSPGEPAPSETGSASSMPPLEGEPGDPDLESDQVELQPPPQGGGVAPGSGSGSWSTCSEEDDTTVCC

Biological target: interferon-induced double-stranded RNA-dependent protein kinase (PKR), endogenous in Huh7.5 cells (human (endogenous in Huh7.5)) (UniProt P19525)
Assay: co-IP; lysates of Huh7.5 cells electroporated with mJFH-1 RNAs, 72 hpe; IP buffer 25 mM Tris-HCl pH 7.4, 150 mM NaCl, 1% NP-40, 1 mM EDTA, 5% glycerol; anti-PKR antibody overnight at 4°C, protein G beads; western blot for NS5A

With “NS5A, wildtype, hepatitis C virus genotype 2a (JFH-1) (from UniProt Q99IB8 1977-2442)” the binding was “binds weakly”.
